This note sets out measurements from publication PMC7989706.

Results are given in words; binding and its absence hold for the method and conditions named. Binding seen in cells or lysates may run through a third protein.

The target in this assay is obesity-associated protein (FTO) (human (endogenous in MHCC97H)) (UniProt Q9C0B1). As to the kind of experiment: co-IP; IP from cell lysate (Pierce IP Lysis Buffer), antibody with protein A/G beads overnight at 4 C, three washes with lysis buffer, western blot; cell line not stated.

B1: S-adenosylmethionine decarboxylase proenzyme (AMD1) (enzyme, UniProt P17707 1-334)
chain: MEAAHFFEGTEKLLEVWFSRQQPDANQGSGDLRTIPRSEWDILLKDVQCSIISVTKTDKQEAYVLSESSMFVSKRRFILKTCGTTLLLKALVPLLKLARDYSGFDSIQSFFYSRKNFMKPSHQGYPHRNFQEEIEFLNAIFPNGAAYCMGRMNSDCWYLYTLDFPESRVISQPDQTLEILMSELDPAVMDQFYMKDGVTAKDVTRESGIRDLIPGSVIDATMFNPCGYSMNGMKSDGTYWTIHITPEPEFSYVSFETNLSQTSYDDLIRKVVEVFKPGKFVTTLFVNQSSKCRTVLASPQKIEGFKRLDCQSAMFNDYNFVFTSFAKKQQQQQS
Regarding B1, the binding entry is “no binding”.
